The supplement of paper PMC12823440, “Inhibitors supercharge kinase turnover through native proteolytic circuits” (Nature, 2025)
The other results are listed elsewhere or left out. Hit calls seldom repeat between salt and free forms of one compound.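 In K562 cells expressing nanoluciferase-fused kinases, luminescence was recorded at 4 h intervals between 2 and 18 h, normalized as percent of control with DMSO at 100% and a positive control at 0%. A significant (2 sigma) signal drop marks a time point as decreased. The authors' rule for a hit is not shown and takes in more than the number of time points.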

Chains of the proteins cited; added tags and fusions are not shown. Lines headed by an entry give the natural chain unless they say otherwise; changes in a name come on top.
UniProt P31749: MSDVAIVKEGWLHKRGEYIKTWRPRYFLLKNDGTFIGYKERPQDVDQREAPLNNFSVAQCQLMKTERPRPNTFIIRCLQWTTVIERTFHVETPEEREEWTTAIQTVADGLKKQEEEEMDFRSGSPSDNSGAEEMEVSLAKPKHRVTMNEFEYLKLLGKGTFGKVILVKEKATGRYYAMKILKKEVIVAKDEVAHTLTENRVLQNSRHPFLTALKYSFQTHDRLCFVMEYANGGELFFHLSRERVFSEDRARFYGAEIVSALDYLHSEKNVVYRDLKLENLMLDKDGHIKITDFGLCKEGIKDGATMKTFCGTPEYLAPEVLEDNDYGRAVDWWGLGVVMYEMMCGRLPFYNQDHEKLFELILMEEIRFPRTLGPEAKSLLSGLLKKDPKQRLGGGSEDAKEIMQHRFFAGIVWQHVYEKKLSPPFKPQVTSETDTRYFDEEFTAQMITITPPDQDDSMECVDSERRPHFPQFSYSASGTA
UniProt Q9UM73: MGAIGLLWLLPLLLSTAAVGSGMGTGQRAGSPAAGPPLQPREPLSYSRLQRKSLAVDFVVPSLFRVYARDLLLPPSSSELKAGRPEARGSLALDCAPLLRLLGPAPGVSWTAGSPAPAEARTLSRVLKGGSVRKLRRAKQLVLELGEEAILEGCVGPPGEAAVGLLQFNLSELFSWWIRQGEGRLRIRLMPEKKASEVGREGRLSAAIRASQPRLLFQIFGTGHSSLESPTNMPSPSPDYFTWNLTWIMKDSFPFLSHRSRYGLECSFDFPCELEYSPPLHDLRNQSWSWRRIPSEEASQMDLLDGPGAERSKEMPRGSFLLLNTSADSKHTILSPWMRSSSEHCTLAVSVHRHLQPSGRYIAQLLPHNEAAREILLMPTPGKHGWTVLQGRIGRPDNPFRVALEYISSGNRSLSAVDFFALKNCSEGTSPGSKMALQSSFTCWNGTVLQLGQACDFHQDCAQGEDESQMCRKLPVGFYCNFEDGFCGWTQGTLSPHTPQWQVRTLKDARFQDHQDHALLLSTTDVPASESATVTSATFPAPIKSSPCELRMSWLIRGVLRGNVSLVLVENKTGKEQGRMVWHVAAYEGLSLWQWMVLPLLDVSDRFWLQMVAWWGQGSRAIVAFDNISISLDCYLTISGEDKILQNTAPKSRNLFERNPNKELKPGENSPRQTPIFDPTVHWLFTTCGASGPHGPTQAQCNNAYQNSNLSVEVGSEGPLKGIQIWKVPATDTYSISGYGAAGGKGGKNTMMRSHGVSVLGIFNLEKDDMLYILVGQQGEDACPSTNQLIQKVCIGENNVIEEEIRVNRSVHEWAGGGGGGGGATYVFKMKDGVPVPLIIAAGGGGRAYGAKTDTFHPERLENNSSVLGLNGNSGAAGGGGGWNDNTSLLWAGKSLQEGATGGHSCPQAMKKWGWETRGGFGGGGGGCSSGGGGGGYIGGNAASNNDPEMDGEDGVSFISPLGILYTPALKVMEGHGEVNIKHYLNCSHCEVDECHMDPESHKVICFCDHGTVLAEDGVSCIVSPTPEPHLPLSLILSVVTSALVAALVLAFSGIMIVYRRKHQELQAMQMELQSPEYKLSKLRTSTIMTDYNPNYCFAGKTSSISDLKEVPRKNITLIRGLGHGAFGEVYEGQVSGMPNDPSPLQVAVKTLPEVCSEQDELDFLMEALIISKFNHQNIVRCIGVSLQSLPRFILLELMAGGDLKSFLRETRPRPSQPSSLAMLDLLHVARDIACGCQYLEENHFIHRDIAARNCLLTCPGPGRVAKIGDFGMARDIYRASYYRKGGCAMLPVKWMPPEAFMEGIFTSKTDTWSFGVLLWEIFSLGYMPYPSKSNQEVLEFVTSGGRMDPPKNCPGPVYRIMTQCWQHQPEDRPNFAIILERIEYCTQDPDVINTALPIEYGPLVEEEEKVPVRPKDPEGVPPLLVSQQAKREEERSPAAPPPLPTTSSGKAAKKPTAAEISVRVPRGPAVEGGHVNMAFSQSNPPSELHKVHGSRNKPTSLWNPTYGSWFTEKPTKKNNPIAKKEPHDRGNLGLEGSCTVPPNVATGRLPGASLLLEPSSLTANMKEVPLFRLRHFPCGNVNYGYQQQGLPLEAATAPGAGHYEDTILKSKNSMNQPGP
UniProt Q9UQB9: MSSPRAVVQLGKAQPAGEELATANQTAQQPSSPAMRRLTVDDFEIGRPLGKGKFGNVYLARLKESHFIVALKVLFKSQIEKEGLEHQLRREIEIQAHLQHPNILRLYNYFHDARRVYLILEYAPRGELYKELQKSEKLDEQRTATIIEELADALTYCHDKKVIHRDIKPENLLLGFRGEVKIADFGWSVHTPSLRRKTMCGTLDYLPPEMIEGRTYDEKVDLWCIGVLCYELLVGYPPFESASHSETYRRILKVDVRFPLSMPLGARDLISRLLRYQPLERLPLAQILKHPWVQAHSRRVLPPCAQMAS
UniProt P51451: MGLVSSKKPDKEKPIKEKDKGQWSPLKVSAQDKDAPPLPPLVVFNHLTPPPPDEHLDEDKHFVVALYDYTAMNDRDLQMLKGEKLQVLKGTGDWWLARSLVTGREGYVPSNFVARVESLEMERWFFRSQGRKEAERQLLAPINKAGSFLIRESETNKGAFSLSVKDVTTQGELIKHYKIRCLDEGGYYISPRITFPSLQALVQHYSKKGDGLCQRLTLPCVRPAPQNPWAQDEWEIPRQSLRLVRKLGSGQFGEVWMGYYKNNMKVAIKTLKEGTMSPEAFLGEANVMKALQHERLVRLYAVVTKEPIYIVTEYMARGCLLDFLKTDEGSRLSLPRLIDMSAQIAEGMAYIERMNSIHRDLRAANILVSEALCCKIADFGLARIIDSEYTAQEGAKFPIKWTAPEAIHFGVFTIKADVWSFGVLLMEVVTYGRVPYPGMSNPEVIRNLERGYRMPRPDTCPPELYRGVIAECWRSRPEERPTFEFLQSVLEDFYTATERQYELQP
UniProt P51813: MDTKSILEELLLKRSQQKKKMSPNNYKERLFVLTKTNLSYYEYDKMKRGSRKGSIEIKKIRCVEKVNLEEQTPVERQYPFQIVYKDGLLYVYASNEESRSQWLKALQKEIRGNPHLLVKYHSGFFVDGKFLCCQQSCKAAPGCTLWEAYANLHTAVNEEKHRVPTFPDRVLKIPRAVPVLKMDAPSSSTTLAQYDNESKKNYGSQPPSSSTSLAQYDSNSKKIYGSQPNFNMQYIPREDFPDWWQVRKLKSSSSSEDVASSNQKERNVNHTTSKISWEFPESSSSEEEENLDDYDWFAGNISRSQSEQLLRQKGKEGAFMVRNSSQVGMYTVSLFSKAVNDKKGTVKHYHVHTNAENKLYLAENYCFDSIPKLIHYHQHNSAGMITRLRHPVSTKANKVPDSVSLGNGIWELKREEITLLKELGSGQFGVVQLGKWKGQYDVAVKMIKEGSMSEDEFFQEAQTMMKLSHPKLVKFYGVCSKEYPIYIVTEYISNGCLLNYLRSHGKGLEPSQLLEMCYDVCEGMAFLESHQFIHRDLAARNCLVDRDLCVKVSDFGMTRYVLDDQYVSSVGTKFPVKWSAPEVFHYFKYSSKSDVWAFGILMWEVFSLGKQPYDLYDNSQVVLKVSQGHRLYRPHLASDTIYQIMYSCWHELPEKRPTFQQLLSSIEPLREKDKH
UniProt P15056, whole entry, looked up: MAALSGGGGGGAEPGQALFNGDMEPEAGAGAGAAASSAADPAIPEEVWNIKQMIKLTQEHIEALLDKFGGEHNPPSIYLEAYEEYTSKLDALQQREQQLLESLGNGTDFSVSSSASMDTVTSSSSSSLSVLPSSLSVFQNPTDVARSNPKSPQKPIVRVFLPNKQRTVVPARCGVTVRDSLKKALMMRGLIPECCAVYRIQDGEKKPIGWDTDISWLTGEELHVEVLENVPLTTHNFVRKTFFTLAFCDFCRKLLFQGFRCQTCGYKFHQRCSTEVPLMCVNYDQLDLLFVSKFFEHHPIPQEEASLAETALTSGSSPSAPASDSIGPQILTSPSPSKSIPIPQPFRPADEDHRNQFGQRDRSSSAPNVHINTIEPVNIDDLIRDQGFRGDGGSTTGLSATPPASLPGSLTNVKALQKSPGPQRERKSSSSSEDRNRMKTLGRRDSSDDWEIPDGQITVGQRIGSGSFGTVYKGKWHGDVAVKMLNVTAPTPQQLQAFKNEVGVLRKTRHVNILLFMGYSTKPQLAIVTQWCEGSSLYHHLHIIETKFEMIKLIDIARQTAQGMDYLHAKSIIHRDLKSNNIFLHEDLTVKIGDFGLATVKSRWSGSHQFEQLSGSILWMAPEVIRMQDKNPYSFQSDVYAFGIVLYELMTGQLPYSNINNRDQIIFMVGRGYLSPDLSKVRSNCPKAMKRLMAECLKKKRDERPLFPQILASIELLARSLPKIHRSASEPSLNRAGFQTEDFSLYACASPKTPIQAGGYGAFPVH
UniProt Q06187: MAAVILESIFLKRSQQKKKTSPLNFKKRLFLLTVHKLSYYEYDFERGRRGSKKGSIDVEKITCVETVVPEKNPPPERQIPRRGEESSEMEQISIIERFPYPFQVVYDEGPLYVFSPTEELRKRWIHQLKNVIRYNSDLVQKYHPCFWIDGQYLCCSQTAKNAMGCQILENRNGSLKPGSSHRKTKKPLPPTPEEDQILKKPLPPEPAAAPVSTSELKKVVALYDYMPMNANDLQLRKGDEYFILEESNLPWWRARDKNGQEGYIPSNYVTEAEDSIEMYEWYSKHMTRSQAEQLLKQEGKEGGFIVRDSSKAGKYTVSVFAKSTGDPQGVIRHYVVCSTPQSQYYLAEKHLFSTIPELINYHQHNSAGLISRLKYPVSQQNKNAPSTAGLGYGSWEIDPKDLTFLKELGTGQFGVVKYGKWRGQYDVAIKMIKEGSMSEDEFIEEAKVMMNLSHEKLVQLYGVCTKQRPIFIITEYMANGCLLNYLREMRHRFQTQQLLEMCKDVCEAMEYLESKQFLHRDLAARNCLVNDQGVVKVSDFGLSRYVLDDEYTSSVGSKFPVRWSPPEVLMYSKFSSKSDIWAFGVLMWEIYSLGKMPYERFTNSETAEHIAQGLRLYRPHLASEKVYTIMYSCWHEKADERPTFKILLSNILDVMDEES
UniProt Q13555: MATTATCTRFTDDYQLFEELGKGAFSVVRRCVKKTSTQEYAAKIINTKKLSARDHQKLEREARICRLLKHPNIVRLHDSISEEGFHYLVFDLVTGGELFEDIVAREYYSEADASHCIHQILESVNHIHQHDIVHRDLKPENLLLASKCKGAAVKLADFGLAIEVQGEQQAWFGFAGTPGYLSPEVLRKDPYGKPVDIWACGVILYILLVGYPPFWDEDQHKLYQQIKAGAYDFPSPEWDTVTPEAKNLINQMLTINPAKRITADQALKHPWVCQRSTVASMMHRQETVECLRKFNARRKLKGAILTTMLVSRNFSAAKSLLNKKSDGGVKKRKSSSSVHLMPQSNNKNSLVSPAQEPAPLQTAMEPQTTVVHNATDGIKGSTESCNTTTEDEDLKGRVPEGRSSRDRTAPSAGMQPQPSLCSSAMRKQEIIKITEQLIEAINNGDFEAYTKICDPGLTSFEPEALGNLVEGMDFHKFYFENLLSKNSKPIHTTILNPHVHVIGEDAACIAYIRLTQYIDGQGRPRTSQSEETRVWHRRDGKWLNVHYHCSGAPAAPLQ
UniProt Q15131: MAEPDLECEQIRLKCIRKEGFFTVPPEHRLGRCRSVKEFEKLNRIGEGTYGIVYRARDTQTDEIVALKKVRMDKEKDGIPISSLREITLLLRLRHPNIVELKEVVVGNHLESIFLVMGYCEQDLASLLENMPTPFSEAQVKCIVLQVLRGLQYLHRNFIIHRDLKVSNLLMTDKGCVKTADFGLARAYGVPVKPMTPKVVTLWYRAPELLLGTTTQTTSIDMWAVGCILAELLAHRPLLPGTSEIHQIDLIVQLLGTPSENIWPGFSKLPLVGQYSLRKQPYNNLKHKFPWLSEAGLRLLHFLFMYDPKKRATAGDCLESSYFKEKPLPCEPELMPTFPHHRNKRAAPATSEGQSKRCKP
UniProt Q00526: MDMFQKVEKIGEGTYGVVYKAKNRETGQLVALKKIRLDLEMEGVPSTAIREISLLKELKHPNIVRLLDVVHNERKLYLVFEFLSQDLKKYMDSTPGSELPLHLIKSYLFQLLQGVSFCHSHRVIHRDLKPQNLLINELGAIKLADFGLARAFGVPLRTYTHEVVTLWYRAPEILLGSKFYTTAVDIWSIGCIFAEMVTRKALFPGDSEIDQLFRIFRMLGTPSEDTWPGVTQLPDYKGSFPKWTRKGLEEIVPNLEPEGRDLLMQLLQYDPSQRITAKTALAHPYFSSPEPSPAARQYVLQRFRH
UniProt P11802: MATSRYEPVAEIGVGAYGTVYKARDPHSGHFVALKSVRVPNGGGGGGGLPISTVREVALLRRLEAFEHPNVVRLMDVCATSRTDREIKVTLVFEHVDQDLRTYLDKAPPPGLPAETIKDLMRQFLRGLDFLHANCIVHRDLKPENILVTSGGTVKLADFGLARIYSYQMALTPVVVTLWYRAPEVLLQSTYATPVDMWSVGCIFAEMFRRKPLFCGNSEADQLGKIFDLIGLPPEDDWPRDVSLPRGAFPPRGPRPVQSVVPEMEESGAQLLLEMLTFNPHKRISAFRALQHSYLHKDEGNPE

Columns and labels:
Assay in all cases: kinase-Nluc reporter destabilization hit call (1 = scored as downregulated) (binary); higher = compound decreases kinase abundance
Conditions in all cases: K562; 2-18 h
ABL1 = ABL1 (UniProt P00519)
AKT1 = AKT1 (UniProt P31749)
ALK = ALK (UniProt Q9UM73)
ARAF = ARAF (UniProt P10398)
AURKA = AURKA (UniProt O14965)
AURKB = AURKB (UniProt Q96GD4)
AURKC = AURKC (UniProt Q9UQB9)
BLK = BLK (UniProt P51451)
BMX = BMX (UniProt P51813)
BRAF = BRAF (UniProt P15056)
BRAF_V600E = tested on: BRAF_V600E
BTK = BTK (UniProt Q06187)
CAMK2A = CAMK2A (UniProt Q9UQM7)
CAMK2G = CAMK2G (UniProt Q13555)
CDK10 = CDK10 (UniProt Q15131)
CDK2 = CDK2 (UniProt P24941)
CDK3 = CDK3 (UniProt Q00526)
CDK4 = CDK4 (UniProt P11802)
CDK5 = CDK5 (UniProt Q00535)
CDK6 = CDK6 (UniProt Q00534)

Structure (SMILES) | kinase-Nluc reporter destabilization hit call (ABL1) | kinase-Nluc reporter destabilization hit call (AKT1) | kinase-Nluc reporter destabilization hit call (ALK) | kinase-Nluc reporter destabilization hit call (ARAF) | kinase-Nluc reporter destabilization hit call (AURKA) | kinase-Nluc reporter destabilization hit call (AURKB) | kinase-Nluc reporter destabilization hit call (AURKC) | kinase-Nluc reporter destabilization hit call (BLK) | kinase-Nluc reporter destabilization hit call (BMX) | kinase-Nluc reporter destabilization hit call (BRAF) | kinase-Nluc reporter destabilization hit call (BRAF_V600E) | kinase-Nluc reporter destabilization hit call (BTK) | kinase-Nluc reporter destabilization hit call (CAMK2A) | kinase-Nluc reporter destabilization hit call (CAMK2G) | kinase-Nluc reporter destabilization hit call (CDK10) | kinase-Nluc reporter destabilization hit call (CDK2) | kinase-Nluc reporter destabilization hit call (CDK3) | kinase-Nluc reporter destabilization hit call (CDK4) | kinase-Nluc reporter destabilization hit call (CDK5) | kinase-Nluc reporter destabilization hit call (CDK6)
CC(=O)c1cc(O)ccc1O [2,5-Dihydroxyacetophenone] (10 µM) | inactive: 0 | inactive: 0 | inactive: 0 | inactive: 0 | inactive: 0 | inactive: 0 | inactive: 0 | inactive: 0 | inactive: 0 | inactive: 0 | inactive: 0 | inactive: 0 | inactive: 0 | inactive: 0 | inactive: 0 | inactive: 0 | inactive: 0 | inactive: 0 | inactive: 0 | inactive: 0
CC1=C(C(=O)Nc2ccc3[nH]ncc3c2)C(c2ccc(F)c(C(=O)NCc3ccccn3)c2)NC(=O)N1 (stereo not given) (10 µM) | inactive: 0 | inactive: 0 | inactive: 0 | inactive: 0 | inactive: 0 | inactive: 0 | inactive: 0 | inactive: 0 | inactive: 0 | inactive: 0 | inactive: 0 | inactive: 0 | inactive: 0 | inactive: 0 | inactive: 0 | inactive: 0 | inactive: 0 | inactive: 0 | inactive: 0 | inactive: 0
C=CC(=O)Nc1cccc(Oc2nc(Nc3ccc(N4CCN(C)CC4)cc3)nc3ccsc23)c1 [Olmutinib] (2.5 µM) | inactive: 0 | inactive: 0 | inactive: 0 | inactive: 0 | inactive: 0 | inactive: 0 | inactive: 0 | inactive: 0 | inactive: 0 | inactive: 0 | inactive: 0 | inactive: 0 | inactive: 0 | inactive: 0 | inactive: 0 | inactive: 0 | inactive: 0 | inactive: 0 | inactive: 0 | inactive: 0
Cc1ncc(F)c(Nc2n[nH]c3c2CN(C(=O)N2C[C@@H](C)N(CC4CCOCC4)C[C@@H]2C)C3(C)C)n1 (10 µM) | inactive: 0 | inactive: 0 | inactive: 0 | inactive: 0 | inactive: 0 | inactive: 0 | inactive: 0 | inactive: 0 | inactive: 0 | inactive: 0 | inactive: 0 | inactive: 0 | inactive: 0 | inactive: 0 | inactive: 0 | inactive: 0 | inactive: 0 | inactive: 0 | inactive: 0 | inactive: 0
COC(=O)[C@]1(C)CC[C@]2(C(=O)O[C@@H]3O[C@H](CO)[C@@H](O)[C@H](O)[C@H]3O)CC[C@]3(C)C(=CC[C@@H]4[C@@]5(C)C[C@H](O)[C@H](O[C@@H]6OC[C@@H](O[C@@H]7O[C@H](CO)[C@@H](O)[C@H](O)[C@H]7O)[C@H](O)[C@H]6O)[C@@](C)(CO)C5CC[C@]43C)[C@H]2C1 (stereo not given in full) [Esculentoside H] (10 µM) | inactive: 0 | inactive: 0 | inactive: 0 | inactive: 0 | inactive: 0 | inactive: 0 | inactive: 0 | inactive: 0 | inactive: 0 | inactive: 0 | inactive: 0 | inactive: 0 | inactive: 0 | inactive: 0 | inactive: 0 | inactive: 0 | inactive: 0 | inactive: 0 | inactive: 0 | inactive: 0
CCc1nc(C(N)=O)c(Nc2ccc(N3CCC(N4CCN(C)CC4)CC3)c(OC)c2)nc1NC1CCC(OC)CC1 (stereo not given) [EML4-ALK kinase inhibitor 1] (2.5 µM) | inactive: 0 | inactive: 0 | inactive: 0 | inactive: 0 | inactive: 0 | inactive: 0 | inactive: 0 | inactive: 0 | inactive: 0 | inactive: 0 | inactive: 0 | inactive: 0 | inactive: 0 | inactive: 0 | inactive: 0 | inactive: 0 | inactive: 0 | inactive: 0 | inactive: 0 | inactive: 0
Cc1nc(Nc2ncc(C(=O)Nc3c(C)cccc3Cl)s2)cc(N2CCN(C(=O)CCCCCCC(=O)N[C@H](C(=O)N3C[C@H](O)C[C@H]3C(=O)NCc3ccc(-c4scnc4C)cc3)C(C)(C)C)CC2)n1 (2.5 µM) | inactive: 0 | inactive: 0 | inactive: 0 | inactive: 0 | inactive: 0 | inactive: 0 | inactive: 0 | inactive: 0 | active: 1 | inactive: 0 | inactive: 0 | active: 1 | inactive: 0 | inactive: 0 | inactive: 0 | inactive: 0 | inactive: 0 | inactive: 0 | inactive: 0 | inactive: 0
Nc1nc2c(ncn2COCCO)c(=O)[nH]1 [Acyclovir] (10 µM) | inactive: 0 | inactive: 0 | inactive: 0 | inactive: 0 | inactive: 0 | inactive: 0 | inactive: 0 | inactive: 0 | inactive: 0 | inactive: 0 | inactive: 0 | inactive: 0 | inactive: 0 | inactive: 0 | inactive: 0 | inactive: 0 | inactive: 0 | inactive: 0 | inactive: 0 | inactive: 0
